Drawing on publication PMC9218151, this text covers binding for four substances.

Chains of the proteins cited; added tags and fusions are not shown.
UniProt O95376: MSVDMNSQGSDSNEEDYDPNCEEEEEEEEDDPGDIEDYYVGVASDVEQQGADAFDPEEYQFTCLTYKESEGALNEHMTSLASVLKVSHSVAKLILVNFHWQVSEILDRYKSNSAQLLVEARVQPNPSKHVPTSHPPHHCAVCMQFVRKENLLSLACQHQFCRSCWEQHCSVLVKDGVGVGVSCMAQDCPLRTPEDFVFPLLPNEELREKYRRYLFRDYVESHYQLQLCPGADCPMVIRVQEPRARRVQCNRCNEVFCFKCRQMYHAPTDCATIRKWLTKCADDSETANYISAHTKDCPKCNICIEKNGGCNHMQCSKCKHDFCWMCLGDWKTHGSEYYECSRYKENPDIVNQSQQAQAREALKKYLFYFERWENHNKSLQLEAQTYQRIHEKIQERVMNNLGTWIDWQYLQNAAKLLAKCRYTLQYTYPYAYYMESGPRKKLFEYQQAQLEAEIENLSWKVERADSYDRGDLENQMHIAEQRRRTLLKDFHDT
UniProt P38936: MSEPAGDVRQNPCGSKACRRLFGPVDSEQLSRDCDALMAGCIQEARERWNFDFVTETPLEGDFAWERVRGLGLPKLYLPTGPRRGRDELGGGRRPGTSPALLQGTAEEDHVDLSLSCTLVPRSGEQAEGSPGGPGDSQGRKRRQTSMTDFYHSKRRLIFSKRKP

No constants are given. Whether binding was seen depends on the method and setting. Binding seen in cells or lysates may run through a third protein. Some entries that bind do so weakly or less than the wild type.

For assay [1], the target named is Flag-tagged ARIH2 (Ariadne homolog 2) (human) (UniProt O95376). As to the kind of experiment: co-IP; Flag-ARIH2 and MYC-p21 cotransfected into 293FT cells; lysates in IP lysis buffer immunoprecipitated with anti-Flag or anti-MYC antibody overnight at 4 °C, protein A + G agarose beads, blotted with anti-MYC or anti-Flag.
The target in assay [2] is endogenous p21 (human (endogenous in SGC7901)) (UniProt P38936). As to the kind of experiment: co-IP; endogenous proteins; SGC7901 cell lysates immunoprecipitated with control IgG or ARIH2 antibody, blotted with p21 antibody.
Assay [3] deals with MYC-tagged p21 (CDKN1A, p21WAF1/CIP1) (human) (UniProt P38936). As to the kind of experiment: co-IP; Flag-ARIH2 and MYC-p21 cotransfected into 293FT cells; lysates in IP lysis buffer immunoprecipitated with anti-Flag or anti-MYC antibody overnight at 4 °C, protein A + G agarose beads, blotted with anti-MYC or anti-Flag.
Assay [4] has as its target endogenous ARIH2 (human (endogenous in SGC7901)) (UniProt O95376). Kind of assay: co-IP; endogenous proteins; SGC7901 cell lysates immunoprecipitated with control IgG or ARIH2 antibody, blotted with p21 antibody.

As to “MYC-tagged p21 (CDKN1A, p21WAF1/CIP1) (from UniProt P38936 1-164)”, the binding entry in assay [1] is “binds”.

With “endogenous ARIH2 (from UniProt O95376 1-493) (enzyme)”, in assay [2], the binding entry was “binds”. Regarding “Flag-tagged ARIH2 (Ariadne homolog 2) (from UniProt O95376 1-493) (enzyme)”, the binding result in assay [3] is on record as “binds”.

Regarding “endogenous p21 (from UniProt P38936 1-164)”, the binding entry in assay [4] is on record as “binds”.
